Test results reported in the supplement of paper PMC7877785.
± gives the uncertainty stated by the source. Many of these values have a large error.

Experiment: self-splicing fitness, log relative to wild type (ln ratio); higher = more splicing; Tetrahymena group I intron in knt gene, E. coli kanamycin selection, DiMSum; sequences stand for … in CUCUCU…GGAGGGAAAAGUUAUCAGGCAUGCACCUGGUAGCUAGUCUUUAAACCAAUAGAUUGCAUCGGUUUAAAAGGCAAGACCGUCAAAUUGCGGGAAAGGGGUCAACAGCCGUUCAGUACCAAGUCUCAGGGGAAACUUUGAGAUGGCCUUGCAAAGGGUAUGGUAAUAAGCUGACGGACAUGGUCCUAACCACGCAGCCAAGUCCUAAGUCAACAGAUCUUCUGUUGAUAUGGAUGCAGUUCACAGACUAAAUGUCGGUCGGGGAAGAUGUAUUCUUCUCAUAAGAUAUAGUCGGACCUCUCCUUAAUGGGAGCUAGCGGAUGAAGUGAUGCAACACUGGAGCCGCUGGGAACUAAUUUGUAUGCGAAAGUAUAUUGAUUAGUUUUGGAGUACUCGUGGUCG
In short: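 DiMSum derived fitness as the error-weighted combination of fold changes across replicates, kanamycin versus no kanamycin, normalised to wild type. E. coli BL21(DE3) held the library, which randomised all eight P1ex-region intron nucleotides within the knt kanamycin-resistance gene on pET-22b(+). Six replicate transformations grew overnight at 37°C or 30°C on LB agar with or without 25 μg/mL kanamycin, also containing 100 μg/mL carbenicillin, 50 μM IPTG and 0.2% rhamnose, and pooled colonies were amplicon-sequenced on an Illumina HiSeq 2500.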

CUGGAGCAAUAUUACGCCGC
self-splicing fitness (ln) (30 °C): -3.19 ± 1.2

GUAGAGCAAUAUUACGCGGU
self-splicing fitness (ln) (30 °C): -2.88 ± 0.55 | self-splicing fitness (ln) (37 °C): -2.44 ± 0.78

UACAAGCAAUAUUACGUCCU
self-splicing fitness (ln) (30 °C): -1.16 ± 0.1 | self-splicing fitness (ln) (37 °C): 0.292 ± 0.15

GAUGAGCAAUAUUACGAGCA
self-splicing fitness (ln) (37 °C): -2.08 ± 1.1

CUGCAGCAAUAUUACGGACA
self-splicing fitness (ln) (30 °C): -4 ± 0.6

CAUCAGCAAUAUUACGGGAU
self-splicing fitness (ln) (30 °C): -4.36 ± 1

GGUUAGCAAUAUUACGACUG
self-splicing fitness (ln) (30 °C): -0.729 ± 0.1 | self-splicing fitness (ln) (37 °C): -0.796 ± 0.12

AUUGAGCAAUAUUACGCAAA
self-splicing fitness (ln) (37 °C): -1.72 ± 0.51

AGGAAGCAAUAUUACGAAAA
self-splicing fitness (ln) (30 °C): -1.71 ± 0.71

AUUUAGCAAUAUUACGAUGG
self-splicing fitness (ln) (37 °C): -2.66 ± 0.62

AUCGAGCAAUAUUACGGUAG
self-splicing fitness (ln) (30 °C): -4.34 ± 0.51

CUCUAGCAAUAUUACGAGGC
self-splicing fitness (ln) (37 °C): -3.28 ± 0.74

CGAGAGCAAUAUUACGAGCA
self-splicing fitness (ln) (37 °C): -2.32 ± 0.55

UAAGAGCAAUAUUACGCUGA
self-splicing fitness (ln) (30 °C): -3.94 ± 0.6

AAAUAGCAAUAUUACGCUAG
self-splicing fitness (ln) (30 °C): -1.55 ± 0.13 | self-splicing fitness (ln) (37 °C): -1 ± 0.15

GCAUAGCAAUAUUACGAUGC
self-splicing fitness (ln) (37 °C): -3.19 ± 0.52

UACCAGCAAUAUUACGAGUG
self-splicing fitness (ln) (30 °C): -0.127 ± 0.052 | self-splicing fitness (ln) (37 °C): -0.0711 ± 0.067

GGAGAGCAAUAUUACGCGGU
self-splicing fitness (ln) (37 °C): -2.82 ± 0.75

CCCUAGCAAUAUUACGAACA
self-splicing fitness (ln) (30 °C): -3.19 ± 0.82

CCUGAGCAAUAUUACGUCCU
self-splicing fitness (ln) (37 °C): -2.92 ± 0.61

GGCUAGCAAUAUUACGGCUC
self-splicing fitness (ln) (37 °C): -1 ± 0.65

AACAAGCAAUAUUACGAGGG
self-splicing fitness (ln) (30 °C): -3 ± 0.11 | self-splicing fitness (ln) (37 °C): -1.35 ± 0.15

GAGAAGCAAUAUUACGCCGU
self-splicing fitness (ln) (30 °C): -2.18 ± 0.21 | self-splicing fitness (ln) (37 °C): -1.89 ± 0.21

CCAAAGCAAUAUUACGACCC
self-splicing fitness (ln) (30 °C): -4.44 ± 0.72

UAGUAGCAAUAUUACGCAAU
self-splicing fitness (ln) (30 °C): -3.44 ± 0.62

GAGUAGCAAUAUUACGCUCC
self-splicing fitness (ln) (30 °C): -4.32 ± 1 | self-splicing fitness (ln) (37 °C): -1.79 ± 1.2

GCGGAGCAAUAUUACGUUCC
self-splicing fitness (ln) (30 °C): -2.04 ± 0.82 | self-splicing fitness (ln) (37 °C): -1.69 ± 0.81

GAUGAGCAAUAUUACGAUCC
self-splicing fitness (ln) (30 °C): -2.02 ± 0.87 | self-splicing fitness (ln) (37 °C): -1.28 ± 0.56

CCUGAGCAAUAUUACGCCGG
self-splicing fitness (ln) (30 °C): -1.93 ± 0.58

UCGUAGCAAUAUUACGACAG
self-splicing fitness (ln) (30 °C): -3.38 ± 0.6

GUUUAGCAAUAUUACGACCG
self-splicing fitness (ln) (30 °C): -2.97 ± 0.83 | self-splicing fitness (ln) (37 °C): -2.36 ± 0.57

GCUAAGCAAUAUUACGGGCU
self-splicing fitness (ln) (30 °C): -3.64 ± 0.61

UUAAAGCAAUAUUACGAAUU
self-splicing fitness (ln) (30 °C): -1.97 ± 0.11 | self-splicing fitness (ln) (37 °C): -2.46 ± 0.21

CUAUAGCAAUAUUACGCCAC
self-splicing fitness (ln) (30 °C): -3.21 ± 0.76

GGUUAGCAAUAUUACGAGAC
self-splicing fitness (ln) (30 °C): -2.36 ± 1.2

UCGAAGCAAUAUUACGCUCG
self-splicing fitness (ln) (30 °C): -2.53 ± 0.31 | self-splicing fitness (ln) (37 °C): -1.39 ± 0.27

GAAGAGCAAUAUUACGUAAA
self-splicing fitness (ln) (30 °C): -4.11 ± 0.6 | self-splicing fitness (ln) (37 °C): -0.64 ± 0.92

GCGAAGCAAUAUUACGGCUU
self-splicing fitness (ln) (37 °C): -3.23 ± 1

GUUGAGCAAUAUUACGUCUC
self-splicing fitness (ln) (30 °C): -0.631 ± 1.2

GGCGAGCAAUAUUACGUUGC
self-splicing fitness (ln) (30 °C): -3.52 ± 0.61 | self-splicing fitness (ln) (37 °C): -1.88 ± 0.67

GGGUAGCAAUAUUACGAACA
self-splicing fitness (ln) (30 °C): -1.63 ± 0.54

ACGGAGCAAUAUUACGGAUA
self-splicing fitness (ln) (30 °C): -3.27 ± 0.33 | self-splicing fitness (ln) (37 °C): -2.61 ± 0.42

GUCGAGCAAUAUUACGCACG
self-splicing fitness (ln) (37 °C): -1.39 ± 1.2

AAACAGCAAUAUUACGCAUC
self-splicing fitness (ln) (30 °C): -2.82 ± 0.13 | self-splicing fitness (ln) (37 °C): -2.07 ± 0.11

UAUGAGCAAUAUUACGGGGC
self-splicing fitness (ln) (30 °C): -3 ± 0.5 | self-splicing fitness (ln) (37 °C): -2.47 ± 0.77

UCGCAGCAAUAUUACGUACC
self-splicing fitness (ln) (30 °C): -4.49 ± 1 | self-splicing fitness (ln) (37 °C): -2.22 ± 0.65

AUGAAGCAAUAUUACGCACU
self-splicing fitness (ln) (30 °C): 0.079 ± 0.14 | self-splicing fitness (ln) (37 °C): 0.992 ± 0.22

AGGGAGCAAUAUUACGUGUU
self-splicing fitness (ln) (30 °C): -2.63 ± 0.31 | self-splicing fitness (ln) (37 °C): -1.73 ± 0.29

UCUGAGCAAUAUUACGUGUC
self-splicing fitness (ln) (37 °C): -3.49 ± 0.52

UGUCAGCAAUAUUACGUCCC
self-splicing fitness (ln) (30 °C): -0.651 ± 0.68 | self-splicing fitness (ln) (37 °C): -2.07 ± 0.65

CCAGAGCAAUAUUACGUACC
self-splicing fitness (ln) (30 °C): -3.62 ± 0.59

UGUGAGCAAUAUUACGCAGC
self-splicing fitness (ln) (30 °C): -3.62 ± 0.61 | self-splicing fitness (ln) (37 °C): -1.77 ± 0.4
